# Results are given in words; binding and its absence hold for the method and conditions named. In cells and extracts the contact can be indirect. Some entries that bind do so weakly or less than the wild type.
# Chains of the proteins cited; added tags and fusions are not shown. Residues count along the entry.
# UniProt O89342, residues 27-546: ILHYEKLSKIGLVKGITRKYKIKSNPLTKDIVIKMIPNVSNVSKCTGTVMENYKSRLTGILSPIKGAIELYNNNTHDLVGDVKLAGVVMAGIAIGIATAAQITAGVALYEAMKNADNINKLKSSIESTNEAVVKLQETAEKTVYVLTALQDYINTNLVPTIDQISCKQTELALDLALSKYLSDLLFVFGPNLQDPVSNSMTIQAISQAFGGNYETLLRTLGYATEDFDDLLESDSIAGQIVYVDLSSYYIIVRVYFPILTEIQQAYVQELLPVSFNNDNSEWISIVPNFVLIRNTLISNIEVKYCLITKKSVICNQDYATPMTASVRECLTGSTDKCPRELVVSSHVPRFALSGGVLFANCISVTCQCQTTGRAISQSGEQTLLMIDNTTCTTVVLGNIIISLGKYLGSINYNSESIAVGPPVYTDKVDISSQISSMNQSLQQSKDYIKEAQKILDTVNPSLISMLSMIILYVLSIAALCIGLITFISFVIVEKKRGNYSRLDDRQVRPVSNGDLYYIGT
# Target: Hendra virus fusion glycoprotein (HeV F), full length, S-tagged (Hendra virus) (UniProt O89342)
# Experiment: cross-linking
substance,measurement,value
"Hendra virus fusion glycoprotein (HeV F), full length, S-tagged (from UniProt O89342)",binding,binds

# Reference: article PMC8004131 (Viruses, 2021)
